Experimental data taken from US11166460B2, “α-amino acrylate microbicide, and preparation method therefor and uses thereof” (priority 2017, dated 2021).
Some of these results come from one statement about several compounds together. At least one compound was matched to its structure with a doubt left.

Tested on: Sclerotinia sclerotiorum
Assay type: cell-based
Conditions: 50 μg/mL

CO/C=C(/C(=O)OC)c1ccccc1Oc1cc(Oc2ccccc2C#N)ncn1 [azoxystrobin, reference compound]
Fungicidal activity (inhibition) against SS: Sclerotinia sclerotiorum: 100%
